The other results are listed elsewhere or left out.
Columns and labels:
Assay in all cases: glycan array binding signal (z-score within array); higher = stronger binding
Conditions in all cases: glycan notation: IUPAC condensed, linker removed
Fuc(a1-3)GlcNAc = target: Fuc(a1-3)GlcNAc
Outline: (§1)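 Columns mapping to the same glycan were averaged after glycan names were converted to IUPAC-condensed notation. The data come from 3228 arrays in the Consortium for Functional Glycomics database, limited to those with an available protein sequence. Binding is reported as a within-array Z-score averaged across arrays of one protein sequence and across linkers.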

[1] = target: Fuc(a1-3)[Gal(b1-4)]Glc6S
Outline: as §1

[2] = target: Fuc(a1-3)[Gal(b1-4)]GlcNAc
Outline: as §1

[3] = target: Fuc(a1-3)[Gal(b1-4)]GlcNAc(b1-2)Man
Outline: as §1

[4] = target: Fuc(a1-3)[Gal(b1-4)]GlcNAc(b1-2)Man(a1-3)[Fuc(a1-3)[Gal(b1-4)]GlcNAc(b1-2)Man(a1-6)]Man(b1-4)GlcNAc(b1-4)GlcNAc
Outline: as §1

[5] = target: Fuc(a1-3)[Gal(b1-4)]GlcNAc(b1-2)Man(a1-3)[Fuc(a1-3)[Gal(b1-4)]GlcNAc(b1-2)Man(a1-6)]Man(b1-4)GlcNAc(b1-4)[Fuc(a1-6)]GlcNAc
Outline: as §1

[6] = target: Fuc(a1-3)[Gal(b1-4)]GlcNAc(b1-3)Gal(b1-3)[Fuc(a1-4)]GlcNAc
Outline: as §1

[7] = target: Fuc(a1-3)[Gal(b1-4)]GlcNAc(b1-3)Gal(b1-4)[Fuc(a1-3)]GlcNAc
Outline: as §1

[8] = target: Fuc(a1-3)[Gal(b1-4)]GlcNAc(b1-3)Gal(b1-4)[Fuc(a1-3)]GlcNAc(b1-3)Gal(b1-4)[Fuc(a1-3)]GlcNAc
Outline: as §1

[9] = target: Fuc(a1-3)[Gal(b1-4)]GlcNAc(b1-3)GalNAc
Outline: as §1

[10] = target: Fuc(a1-3)[Gal(b1-4)]GlcNAc(b1-6)GalNAc
Outline: as §1

[11] = target: Fuc(a1-3)[Gal(b1-4)]GlcNAc(b1-6)[Gal(b1-3)GlcNAc(b1-3)]Gal(b1-4)Glc
Outline: as §1

[12] = target: Fuc(a1-3)[Gal(b1-4)]GlcNAc6S
Outline: as §1

[13] = target: Fuc(a1-3)[Gal3S(b1-4)]Glc
Outline: as §1

[14] = target: Fuc(a1-3)[Gal3S(b1-4)]GlcNAc
Outline: as §1

[15] = target: Fuc(a1-3)[Gal3S(b1-4)]GlcNAc6S
Outline: as §1

[16] = target: Fuc(a1-3)[GalNAc(b1-4)]GlcNAc
Outline: as §1

[17] = target: Fuc(a1-3)[GalNAc(b1-4)]GlcNAc6S
Outline: as §1

Fuc(a1-4)GlcNAc = target: Fuc(a1-4)GlcNAc
Outline: as §1

Fuc(b1-3)GlcNAc = target: Fuc(b1-3)GlcNAc
Outline: as §1

Gal(a1-2)Gal = target: Gal(a1-2)Gal
Outline: as §1

Gal(a1-3)Gal = target: Gal(a1-3)Gal
Outline: as §1

Gal(a1-3)Gal(b1-3)GlcNAc = target: Gal(a1-3)Gal(b1-3)GlcNAc
Outline: as §1

[18] = target: Gal(a1-3)Gal(b1-3)GlcNAc(b1-2)Man
Outline: as §1

[19] = target: Gal(a1-3)Gal(b1-3)GlcNAc(b1-2)Man(a1-3)[Gal(a1-3)Gal(b1-3)GlcNAc(b1-2)Man(a1-6)]Man(b1-4)GlcNAc(b1-4)GlcNAc
Outline: as §1

[20] = target: Gal(a1-3)Gal(b1-3)GlcNAc(b1-3)GalNAc
Outline: as §1

[21] = target: Gal(a1-3)Gal(b1-3)GlcNAc(b1-6)GalNAc
Outline: as §1

[22] = target: Gal(a1-3)Gal(b1-3)[Fuc(a1-4)]GlcNAc(b1-2)Man(a1-3)[Gal(a1-3)Gal(b1-3)[Fuc(a1-4)]GlcNAc(b1-2)Man(a1-6)]Man(b1-4)GlcNAc(b1-4)GlcNAc
Outline: as §1

Gal(a1-3)Gal(b1-4)Glc = target: Gal(a1-3)Gal(b1-4)Glc
Outline: as §1

Gal(a1-3)Gal(b1-4)GlcNAc = target: Gal(a1-3)Gal(b1-4)GlcNAc
Outline: as §1

[23] = target: Gal(a1-3)Gal(b1-4)GlcNAc(b1-2)Man
Outline: as §1

[24] = target: Gal(a1-3)Gal(b1-4)GlcNAc(b1-2)Man(a1-3)[Gal(a1-3)Gal(b1-4)GlcNAc(b1-2)Man(a1-6)]Man(b1-4)GlcNAc(b1-4)GlcNAc
Outline: as §1

[25] = target: Gal(a1-3)Gal(b1-4)GlcNAc(b1-3)GalNAc
Outline: as §1

[26] = target: Gal(a1-3)Gal(b1-4)GlcNAc(b1-6)GalNAc
Outline: as §1

[27] = target: Gal(a1-3)Gal(b1-4)[Fuc(a1-3)]GlcNAc
Outline: as §1

[28] = target: Gal(a1-3)Gal(b1-4)[Fuc(a1-3)]GlcNAc(b1-2)Man(a1-3)[Gal(a1-3)Gal(b1-4)[Fuc(a1-3)]GlcNAc(b1-2)Man(a1-6)]Man(b1-4)GlcNAc(b1-4)GlcNAc
Outline: as §1

Gal(a1-3)GalNAc = target: Gal(a1-3)GalNAc
Outline: as §1

[29] = target: Gal(a1-3)[Gal(a1-4)]Gal(b1-4)GlcNAc
Outline: as §1

[30] = target: Gal(a1-4)Gal(b1-3)GlcNAc(b1-2)Man(a1-3)[Gal(a1-4)Gal(b1-3)GlcNAc(b1-2)Man(a1-6)]Man(b1-4)GlcNAc(b1-4)GlcNAc
Outline: as §1

Gal(a1-4)Gal(b1-4)Glc = target: Gal(a1-4)Gal(b1-4)Glc
Outline: as §1

Gal(a1-4)Gal(b1-4)GlcNAc = target: Gal(a1-4)Gal(b1-4)GlcNAc
Outline: as §1

[31] = target: Gal(a1-4)Gal(b1-4)GlcNAc(b1-2)Man(a1-3)[Gal(a1-4)Gal(b1-4)GlcNAc(b1-2)Man(a1-6)]Man(b1-4)GlcNAc(b1-4)GlcNAc
Outline: as §1

[32] = target: Gal(a1-4)Gal(b1-4)GlcNAc(b1-3)Gal(b1-4)Glc
Outline: as §1

Gal(a1-4)GlcNAc = target: Gal(a1-4)GlcNAc
Outline: as §1

Gal(a1-6)Glc = target: Gal(a1-6)Glc
Outline: as §1

B1: SspB A3vp1 (Streptococcus gordonii), Q54186 (protein)
chain: MTNEADYQAKLAAYQTELARVQKANADAKATYEKAVEDNKAKNAAIKAENEEIKQRNAVAKTDYEAKLAKYEADLAKYKKEFAAYTAALAEAESKKKQDGYLSEPRSQSLNFKSEPNAIRTIDSSVHQYGQQELDALVKSWGISPTNPDRKKSRAYSYFNAINSNNTYAKLVLEKDKPVDVTYTGLKNSSFNGKKISKVVYTYTLKETGFNDGTKMTMFASSDPTVTAWYNDYFTSTNINVKVKFYDEEGQLMNLTGGLVNFSSLNRGNGSGAIDKDAIESVRNFNGRYIPISGSSIKIHENNSAYADSSNAEKSLGARWNTSEWDTTSSPNNWYGAIVGEITQSEISFNMASSKSGNIWFAFNSNINAIGVPTKPVAPTAPTQPMYETEKPLEPAPVAPSYENEPTPPVKTPDQPEPSKPAAALEHHHHHH
Fuc(a1-3)GlcNAc
  glycan array binding signal (z-score): -0.516
[1]
  glycan array binding signal (z-score): 0.542
[2]
  glycan array binding signal (z-score): -0.996
[3]
  glycan array binding signal (z-score): -0.276
[4]
  glycan array binding signal (z-score): 0.062
[5]
  glycan array binding signal (z-score): 0.653
[6]
  glycan array binding signal (z-score): -0.515
[7]
  glycan array binding signal (z-score): -0.029
[8]
  glycan array binding signal (z-score): -0.599
[9]
  glycan array binding signal (z-score): -0.081
[10]
  glycan array binding signal (z-score): 0.565
[11]
  glycan array binding signal (z-score): -0.012
[12]
  glycan array binding signal (z-score): 1.01
[13]
  glycan array binding signal (z-score): -0.203
[14]
  glycan array binding signal (z-score): 0.069
[15]
  glycan array binding signal (z-score): 0.353
[16]
  glycan array binding signal (z-score): 0.403
[17]
  glycan array binding signal (z-score): 0.709
Fuc(a1-4)GlcNAc
  glycan array binding signal (z-score): -0.649
Fuc(b1-3)GlcNAc
  glycan array binding signal (z-score): -0.373
Gal(a1-2)Gal
  glycan array binding signal (z-score): -0.244
Gal(a1-3)Gal
  glycan array binding signal (z-score): -0.056
Gal(a1-3)Gal(b1-3)GlcNAc
  glycan array binding signal (z-score): 0.073
[18]
  glycan array binding signal (z-score): 0.418
[19]
  glycan array binding signal (z-score): 1.68
[20]
  glycan array binding signal (z-score): -1.05
[21]
  glycan array binding signal (z-score): 0.724
[22]
  glycan array binding signal (z-score): 1.04
Gal(a1-3)Gal(b1-4)Glc
  glycan array binding signal (z-score): -0.203
Gal(a1-3)Gal(b1-4)GlcNAc
  glycan array binding signal (z-score): -0.563
[23]
  glycan array binding signal (z-score): -0.441
[24]
  glycan array binding signal (z-score): 1.84
[25]
  glycan array binding signal (z-score): -0.466
[26]
  glycan array binding signal (z-score): -0.506
[27]
  glycan array binding signal (z-score): -0.242
[28]
  glycan array binding signal (z-score): 1.43
Gal(a1-3)GalNAc
  glycan array binding signal (z-score): -0.575
[29]
  glycan array binding signal (z-score): 0.649
[30]
  glycan array binding signal (z-score): 1.38
Gal(a1-4)Gal(b1-4)Glc
  glycan array binding signal (z-score): -0.053
Gal(a1-4)Gal(b1-4)GlcNAc
  glycan array binding signal (z-score): 0.692
[31]
  glycan array binding signal (z-score): 1.45
[32]
  glycan array binding signal (z-score): -0.588
Gal(a1-4)GlcNAc
  glycan array binding signal (z-score): -0.706
Gal(a1-6)Glc
  glycan array binding signal (z-score): -0.898
